Laboratory results published in patent US4743616A, “Novel biologically active compound having anti-prolyl endopeptidase activity” (Suntory Limited, priority 1984, dated 1988).

What was measured:
[1] = tested on: experimental amnesia caused in rats by scopolamine; test: Preventive effect against experimental amnesia caused in rats by scopolamine (intraperitoneal administration); type: in vivo, Wister male rats; settings: 1 h before learning, scopolamine 3 mg/kg i.p. after learning
Experimental: (§1) Several of the anti-prolyl endopeptidase compounds of the present invention were checked for their ability to prevent the inhibition of long-term memory fixation by scopolamine. Solutions of physiological saline that contained selected compounds of the present inventions in varying amounts (20 mg, 2 mg, 0.2 mg and 0.02 mg/kg) were administered intraperitoneally once a day to Wister male rats (100-120 g). One hour after the administration, electric shocks were applied to the rats so that they would acquire passive avoidance learning. Immediately thereafter, scopolamine was administered intraperitoneally to each rat in an amount of 3 mg per kg of body weight.
(§2) The result of the test was assessed both 24 hours and 48 hours after the administration of scopolamine. The number of amnesic rats and that of sound rats were counted for each of the control group (rats which were not administered the test compounds but administered intraperitoneally only scopolamine and physiological saline) and the treated group (rats which were administered both the test compound and scopolamine).

[2] = tested on: experimental amnesia caused in rats by scopolamine; test: Preventive effect against experimental amnesia caused in rats by scopolamine (oral administration); type: in vivo; settings: scopolamine 3 mg/kg i.p. after learning
Experimental: as §1, §2
Varying amounts (1, 5, 25 and 100 mg/kg) of the compound were administered orally to each of the rats and tested for its anti-amnesic effects by the same procedures as used in Example 9.

For `O=CC1CCCN1C(=O)Cc1ccccc1` (stereo not drawn) [Compound No. 1], the “Learning: Initial avoidane time” value ([1]; 0.2 mg/kg i.p.) was 2.4 s, the “Learning: No. of avoidances during learning” value ([1]; 0.2 mg/kg i.p.) was 1.8 and the “Learning: learning time” value ([1]; 0.2 mg/kg i.p.) was 48.3 s. The “Learning: Initial avoidane time” value ([1]; 2 mg/kg i.p.) was 3.5 s, the “Learning: No. of avoidances during learning” value ([1]; 2 mg/kg i.p.) was 1.8 and the “Learning: learning time” value ([1]; 2 mg/kg i.p.) was 45.2 s.
With `COC(=O)[C@@H]1CCCN1C(=O)CCc1ccccc1` [Compound No. 4, N-(3-phenylpropionyl)-proline methyl ester] the “Learning: Initial avoidane time” value ([1]; 2 mg/kg i.p.) was 2.8 s, the “Learning: No. of avoidances during learning” value ([1]; 2 mg/kg i.p.) was 2.1 and the “Learning: learning time” value ([1]; 2 mg/kg i.p.) was 39.8 s. The “Learning: Initial avoidane time” value ([1]; 20 mg/kg i.p.) was 2.9 s, the “Learning: No. of avoidances during learning” value ([1]; 20 mg/kg i.p.) was 1.6 and the “Learning: learning time” value ([1]; 20 mg/kg i.p.) was 40.5 s.
For `COC(=O)[C@@H]1CCCN1C(=O)Cc1ccccc1` [Compound No. 2, N-phenylacetyl-proline methyl ester], the “Learning: Initial avoidane time” value ([1]; 20 mg/kg i.p.) was 4.2 s, the “Learning: No. of avoidances during learning” value ([1]; 20 mg/kg i.p.) was 2.1 and the “Learning: learning time” value ([1]; 20 mg/kg i.p.) was 37.2 s.
With `O=CC1CCCN1C(=O)CCc1ccccc1` (stereo not drawn) [Compound No. 3, N-(3-phenylpropionyl)-prolinal] the “Learning: Initial avoidane time” value ([1]; 0.02 mg/kg i.p.) was 2.4 s, the “Learning: No. of avoidances during learning” value ([1]; 0.02 mg/kg i.p.) was 1.6 and the “Learning: learning time” value ([1]; 0.02 mg/kg i.p.) was 41.0 s. The “Learning: Initial avoidane time” value ([1]; 0.2 mg/kg i.p.) was 2.2 s, the “Learning: No. of avoidances during learning” value ([1]; 0.2 mg/kg i.p.) was 1.4 and the “Learning: learning time” value ([1]; 0.2 mg/kg i.p.) was 34.0 s. For the same compound, the “Learning: Initial avoidane time” value ([1]; 2 mg/kg i.p.) was 3.1 s, the “Learning: No. of avoidances during learning” value ([1]; 2 mg/kg i.p.) was 2.3 and the “Learning: learning time” value ([1]; 2 mg/kg i.p.) was 43.2 s.
For `O=CC1CCCN1C(=O)CCCc1ccccc1` (stereo not drawn) [Compound No. 5], the “Learning: Initial avoidane time” value ([1]; 0.02 mg/kg i.p.) was 2.4 s, the “Learning: No. of avoidances during learning” value ([1]; 0.02 mg/kg i.p.) was 1.9 and the “Learning: learning time” value ([1]; 0.02 mg/kg i.p.) was 44.3 s. For the same compound, the “Learning: Initial avoidane time” value ([1]; 0.2 mg/kg i.p.) was 2.1 s, the “Learning: No. of avoidances during learning” value ([1]; 0.2 mg/kg i.p.) was 1.8 and the “Learning: learning time” value ([1]; 0.2 mg/kg i.p.) was 42.9 s. The “Learning: Initial avoidane time” value ([1]; 2 mg/kg i.p.) was 2.4 s, the “Learning: No. of avoidances during learning” value ([1]; 2 mg/kg i.p.) was 2.0 and the “Learning: learning time” value ([1]; 2 mg/kg i.p.) was 37.4 s. For the same compound, the “Learning: Initial avoidane time” value ([2]; 1 mg/kg p.o.) was 2.3 s, the “Learning: No. of avoidances during learning” value ([2]; 1 mg/kg p.o.) was 1.9 and the “Learning: learning time” value ([2]; 1 mg/kg p.o.) was 45.3 s. For the same compound, the “Learning: Initial avoidane time” value ([2]; 5 mg/kg p.o.) was 2.8 s, the “Learning: No. of avoidances during learning” value ([2]; 5 mg/kg p.o.) was 1.9 and the “Learning: learning time” value ([2]; 5 mg/kg p.o.) was 47.7 s. For the same compound, the “Learning: Initial avoidane time” value ([2]; 25 mg/kg p.o.) was 2.1 s, the “Learning: No. of avoidances during learning” value ([2]; 25 mg/kg p.o.) was 1.3 and the “Learning: learning time” value ([2]; 25 mg/kg p.o.) was 39.1 s. For the same compound, the “Learning: Initial avoidane time” value ([2]; 100 mg/kg p.o.) was 2.4 s, the “Learning: No. of avoidances during learning” value ([2]; 100 mg/kg p.o.) was 1.5 and the “Learning: learning time” value ([2]; 100 mg/kg p.o.) was 43.3 s.
With `COC(=O)C1CCCN1C(=O)CCCc1ccccc1` (stereo not drawn) [Compound No. 6, N-(4-phenyl-n-butyryl)-proline methyl ester] the “Learning: Initial avoidane time” value ([1]; 0.2 mg/kg i.p.) was 2.7 s, the “Learning: No. of avoidances during learning” value ([1]; 0.2 mg/kg i.p.) was 1.4 and the “Learning: learning time” value ([1]; 0.2 mg/kg i.p.) was 43.5 s. The “Learning: Initial avoidane time” value ([1]; 2 mg/kg i.p.) was 3.2 s, the “Learning: No. of avoidances during learning” value ([1]; 2 mg/kg i.p.) was 1.7 and the “Learning: learning time” value ([1]; 2 mg/kg i.p.) was 42.9 s.
